Data published in the supplement of paper PMC6411743.
± gives the standard deviation of the averaged measurements. This is a selection; strong and weak results do not stand in their true shares.

The chains behind the UniProt entries cited, without tags or fusion partners. Where a name states a change or a piece, a line headed by the entry shows the natural chain unless it says otherwise.
UniProt P62873, whole entry: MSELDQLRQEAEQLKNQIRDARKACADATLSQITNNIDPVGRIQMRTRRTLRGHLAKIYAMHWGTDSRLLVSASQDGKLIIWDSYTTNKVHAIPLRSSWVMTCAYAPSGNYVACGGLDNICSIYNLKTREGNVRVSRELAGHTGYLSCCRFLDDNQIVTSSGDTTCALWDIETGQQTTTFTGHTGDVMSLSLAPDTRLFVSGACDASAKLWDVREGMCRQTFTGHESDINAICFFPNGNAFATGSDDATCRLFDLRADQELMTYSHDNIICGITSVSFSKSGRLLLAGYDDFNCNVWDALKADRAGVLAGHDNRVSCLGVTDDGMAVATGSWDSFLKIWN
UniProt O14653: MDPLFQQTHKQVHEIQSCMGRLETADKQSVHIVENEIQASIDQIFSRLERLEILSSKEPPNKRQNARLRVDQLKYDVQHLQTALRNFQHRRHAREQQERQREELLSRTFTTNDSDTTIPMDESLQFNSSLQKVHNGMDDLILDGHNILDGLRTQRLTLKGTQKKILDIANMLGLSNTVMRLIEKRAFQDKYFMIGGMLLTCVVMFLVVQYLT
UniProt Q9BZZ5: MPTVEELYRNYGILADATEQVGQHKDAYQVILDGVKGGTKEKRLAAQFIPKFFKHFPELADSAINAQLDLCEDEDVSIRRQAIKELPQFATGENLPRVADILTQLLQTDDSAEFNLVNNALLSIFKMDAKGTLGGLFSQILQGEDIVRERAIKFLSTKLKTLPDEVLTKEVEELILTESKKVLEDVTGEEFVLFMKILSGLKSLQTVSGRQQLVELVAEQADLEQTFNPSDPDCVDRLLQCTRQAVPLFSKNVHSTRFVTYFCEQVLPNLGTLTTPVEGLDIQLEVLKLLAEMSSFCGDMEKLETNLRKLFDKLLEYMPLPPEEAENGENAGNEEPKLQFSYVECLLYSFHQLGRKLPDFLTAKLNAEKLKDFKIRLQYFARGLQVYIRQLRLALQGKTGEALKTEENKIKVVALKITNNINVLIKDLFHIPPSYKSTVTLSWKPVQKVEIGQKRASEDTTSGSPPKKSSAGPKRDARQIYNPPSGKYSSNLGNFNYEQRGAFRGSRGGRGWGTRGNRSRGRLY
UniProt P09496: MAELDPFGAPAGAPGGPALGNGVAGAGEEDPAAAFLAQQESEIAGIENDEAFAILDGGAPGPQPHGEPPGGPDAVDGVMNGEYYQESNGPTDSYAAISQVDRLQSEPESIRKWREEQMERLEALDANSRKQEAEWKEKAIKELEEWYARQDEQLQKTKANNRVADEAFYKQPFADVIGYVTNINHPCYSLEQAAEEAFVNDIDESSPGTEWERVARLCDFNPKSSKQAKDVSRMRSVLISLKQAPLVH
UniProt Q8NCB2: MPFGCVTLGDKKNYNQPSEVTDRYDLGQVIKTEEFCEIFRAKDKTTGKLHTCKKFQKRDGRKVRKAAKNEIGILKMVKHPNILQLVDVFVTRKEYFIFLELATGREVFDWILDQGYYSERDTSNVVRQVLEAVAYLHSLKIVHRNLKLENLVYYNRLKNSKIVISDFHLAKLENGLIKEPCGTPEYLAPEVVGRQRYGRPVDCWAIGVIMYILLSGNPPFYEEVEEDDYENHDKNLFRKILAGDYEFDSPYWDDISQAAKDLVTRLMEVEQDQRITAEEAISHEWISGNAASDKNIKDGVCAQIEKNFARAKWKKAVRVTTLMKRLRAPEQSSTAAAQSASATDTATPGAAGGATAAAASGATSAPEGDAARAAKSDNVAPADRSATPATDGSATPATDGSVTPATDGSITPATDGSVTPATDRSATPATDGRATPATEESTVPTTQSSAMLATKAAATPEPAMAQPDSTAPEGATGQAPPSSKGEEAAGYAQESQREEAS
UniProt Q14562: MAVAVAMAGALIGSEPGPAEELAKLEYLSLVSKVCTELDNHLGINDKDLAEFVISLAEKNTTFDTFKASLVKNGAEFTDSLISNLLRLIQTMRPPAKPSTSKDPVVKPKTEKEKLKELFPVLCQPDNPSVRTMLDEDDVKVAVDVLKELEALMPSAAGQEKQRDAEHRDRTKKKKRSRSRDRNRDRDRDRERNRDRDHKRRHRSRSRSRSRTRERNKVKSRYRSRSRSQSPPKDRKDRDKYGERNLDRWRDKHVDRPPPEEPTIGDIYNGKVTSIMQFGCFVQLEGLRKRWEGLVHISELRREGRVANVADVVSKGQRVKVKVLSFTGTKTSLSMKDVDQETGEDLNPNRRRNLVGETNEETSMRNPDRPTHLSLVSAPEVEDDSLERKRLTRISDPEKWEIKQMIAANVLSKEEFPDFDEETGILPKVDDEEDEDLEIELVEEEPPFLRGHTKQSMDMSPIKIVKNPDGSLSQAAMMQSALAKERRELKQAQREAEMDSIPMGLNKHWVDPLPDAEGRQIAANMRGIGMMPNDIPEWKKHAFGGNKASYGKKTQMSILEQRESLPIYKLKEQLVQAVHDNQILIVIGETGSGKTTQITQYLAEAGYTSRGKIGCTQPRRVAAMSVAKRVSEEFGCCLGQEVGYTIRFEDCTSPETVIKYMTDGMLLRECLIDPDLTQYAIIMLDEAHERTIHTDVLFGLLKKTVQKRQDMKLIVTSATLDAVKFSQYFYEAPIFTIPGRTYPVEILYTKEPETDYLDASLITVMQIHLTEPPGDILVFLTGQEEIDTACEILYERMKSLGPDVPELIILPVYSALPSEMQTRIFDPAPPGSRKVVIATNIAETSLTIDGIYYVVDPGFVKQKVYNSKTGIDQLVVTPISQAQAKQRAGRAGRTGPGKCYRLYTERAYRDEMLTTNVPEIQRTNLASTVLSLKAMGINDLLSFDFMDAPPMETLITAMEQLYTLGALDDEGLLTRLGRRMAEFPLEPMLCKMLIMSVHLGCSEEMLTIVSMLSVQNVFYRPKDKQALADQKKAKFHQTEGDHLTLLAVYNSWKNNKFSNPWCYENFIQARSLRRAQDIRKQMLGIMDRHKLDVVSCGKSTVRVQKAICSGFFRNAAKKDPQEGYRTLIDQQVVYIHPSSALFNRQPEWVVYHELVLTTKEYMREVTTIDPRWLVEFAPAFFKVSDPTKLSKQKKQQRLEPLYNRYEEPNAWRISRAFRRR
UniProt Q9UI43: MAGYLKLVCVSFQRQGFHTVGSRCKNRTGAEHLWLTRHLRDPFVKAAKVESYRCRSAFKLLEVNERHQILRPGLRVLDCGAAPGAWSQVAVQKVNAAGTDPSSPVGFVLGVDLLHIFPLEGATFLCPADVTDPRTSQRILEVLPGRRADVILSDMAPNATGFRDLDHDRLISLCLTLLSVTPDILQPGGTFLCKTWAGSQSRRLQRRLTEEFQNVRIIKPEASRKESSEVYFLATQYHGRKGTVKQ
UniProt O15182: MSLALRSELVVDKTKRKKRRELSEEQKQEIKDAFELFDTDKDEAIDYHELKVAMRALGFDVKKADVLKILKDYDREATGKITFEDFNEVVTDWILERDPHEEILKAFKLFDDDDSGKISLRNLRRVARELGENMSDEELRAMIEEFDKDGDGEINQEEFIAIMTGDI
UniProt Q9ULK6: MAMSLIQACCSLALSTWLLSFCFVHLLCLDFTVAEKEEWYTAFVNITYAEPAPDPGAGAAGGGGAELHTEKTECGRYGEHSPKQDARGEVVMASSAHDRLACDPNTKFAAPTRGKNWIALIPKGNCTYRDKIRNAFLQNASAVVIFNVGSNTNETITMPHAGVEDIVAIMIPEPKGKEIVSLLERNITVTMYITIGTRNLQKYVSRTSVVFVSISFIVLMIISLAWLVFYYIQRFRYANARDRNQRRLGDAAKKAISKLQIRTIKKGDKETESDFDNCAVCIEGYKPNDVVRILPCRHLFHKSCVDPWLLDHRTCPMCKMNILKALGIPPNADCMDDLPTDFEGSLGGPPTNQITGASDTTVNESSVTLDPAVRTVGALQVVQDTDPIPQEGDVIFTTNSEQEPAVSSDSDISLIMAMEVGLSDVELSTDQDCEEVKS
UniProt Q13490, whole entry: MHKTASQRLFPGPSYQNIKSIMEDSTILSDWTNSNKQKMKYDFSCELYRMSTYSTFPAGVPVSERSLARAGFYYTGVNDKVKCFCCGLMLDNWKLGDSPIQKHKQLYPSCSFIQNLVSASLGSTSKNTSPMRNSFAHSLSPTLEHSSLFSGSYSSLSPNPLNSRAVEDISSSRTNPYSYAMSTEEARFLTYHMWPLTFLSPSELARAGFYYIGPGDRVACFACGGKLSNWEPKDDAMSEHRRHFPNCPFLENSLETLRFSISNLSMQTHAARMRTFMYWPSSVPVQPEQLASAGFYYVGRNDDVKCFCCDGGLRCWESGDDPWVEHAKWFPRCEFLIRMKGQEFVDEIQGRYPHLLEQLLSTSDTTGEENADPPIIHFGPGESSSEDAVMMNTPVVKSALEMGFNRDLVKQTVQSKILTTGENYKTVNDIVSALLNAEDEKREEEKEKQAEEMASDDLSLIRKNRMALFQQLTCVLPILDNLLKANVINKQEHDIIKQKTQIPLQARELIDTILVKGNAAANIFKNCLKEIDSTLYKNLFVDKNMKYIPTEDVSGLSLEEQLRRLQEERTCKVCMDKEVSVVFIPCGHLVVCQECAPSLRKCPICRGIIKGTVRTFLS
UniProt Q9UJ41, whole entry: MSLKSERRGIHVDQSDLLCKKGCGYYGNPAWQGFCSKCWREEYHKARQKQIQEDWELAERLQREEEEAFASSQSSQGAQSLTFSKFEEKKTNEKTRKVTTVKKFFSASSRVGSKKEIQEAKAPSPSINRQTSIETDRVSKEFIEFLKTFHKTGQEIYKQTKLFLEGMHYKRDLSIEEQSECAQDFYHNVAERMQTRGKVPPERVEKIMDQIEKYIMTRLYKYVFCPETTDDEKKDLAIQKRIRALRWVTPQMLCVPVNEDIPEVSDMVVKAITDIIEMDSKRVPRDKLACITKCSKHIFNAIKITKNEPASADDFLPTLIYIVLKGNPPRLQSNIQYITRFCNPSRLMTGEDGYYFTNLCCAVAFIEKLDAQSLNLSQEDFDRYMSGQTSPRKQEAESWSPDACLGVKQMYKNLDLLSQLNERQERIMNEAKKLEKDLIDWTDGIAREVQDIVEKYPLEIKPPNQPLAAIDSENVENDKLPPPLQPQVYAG
UniProt Q15369, whole entry: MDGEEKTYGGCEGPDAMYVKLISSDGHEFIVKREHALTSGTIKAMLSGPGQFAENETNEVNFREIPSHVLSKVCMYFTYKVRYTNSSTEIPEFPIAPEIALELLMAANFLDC
UniProt P29558: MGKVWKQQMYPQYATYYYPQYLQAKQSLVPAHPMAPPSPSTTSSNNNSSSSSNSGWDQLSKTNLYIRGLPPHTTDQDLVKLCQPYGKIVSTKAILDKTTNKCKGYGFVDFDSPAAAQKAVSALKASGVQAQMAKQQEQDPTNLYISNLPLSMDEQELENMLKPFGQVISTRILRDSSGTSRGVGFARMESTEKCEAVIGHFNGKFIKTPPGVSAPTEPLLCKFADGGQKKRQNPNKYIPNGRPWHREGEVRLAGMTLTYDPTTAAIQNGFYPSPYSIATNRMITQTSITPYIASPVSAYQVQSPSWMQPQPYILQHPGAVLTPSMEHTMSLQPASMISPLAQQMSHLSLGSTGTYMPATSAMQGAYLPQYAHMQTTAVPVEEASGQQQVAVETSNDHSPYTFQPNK
UniProt Q99627: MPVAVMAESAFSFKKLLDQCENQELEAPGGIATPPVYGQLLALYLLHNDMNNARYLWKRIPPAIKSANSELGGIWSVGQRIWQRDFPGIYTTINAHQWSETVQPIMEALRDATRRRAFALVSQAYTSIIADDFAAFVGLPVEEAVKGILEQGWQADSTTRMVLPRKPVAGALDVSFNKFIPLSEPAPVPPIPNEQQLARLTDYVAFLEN
UniProt Q15843, whole entry: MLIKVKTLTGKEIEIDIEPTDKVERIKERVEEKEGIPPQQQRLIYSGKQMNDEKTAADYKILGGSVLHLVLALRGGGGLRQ
UniProt Q8NDZ4: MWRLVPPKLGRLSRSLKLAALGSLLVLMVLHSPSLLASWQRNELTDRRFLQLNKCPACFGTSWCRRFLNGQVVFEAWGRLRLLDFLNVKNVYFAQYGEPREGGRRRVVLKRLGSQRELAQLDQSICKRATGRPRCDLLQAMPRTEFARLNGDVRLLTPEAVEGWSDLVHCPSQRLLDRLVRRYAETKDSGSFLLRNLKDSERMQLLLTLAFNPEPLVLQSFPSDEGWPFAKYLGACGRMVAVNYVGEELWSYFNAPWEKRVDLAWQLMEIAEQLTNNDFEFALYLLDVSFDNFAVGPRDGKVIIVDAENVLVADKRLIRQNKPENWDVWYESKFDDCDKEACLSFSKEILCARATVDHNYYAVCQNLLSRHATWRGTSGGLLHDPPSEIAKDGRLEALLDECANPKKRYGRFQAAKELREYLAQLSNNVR

Compound: Nc1ncnc2c1ncn2[C@@H]1O[C@H](COP(=O)(O)OP(=O)(O)OP(=O)(O)O)[C@@H](O)[C@H]1O [adenosine triphosphate]
Assay: NP40-soluble protein abundance relative to vehicle (solubility fold change) (ratio); higher = more soluble protein in presence of ATP
Summary of the method: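 Eight concentrations, 0.1 to 10 mM, were tested on Jurkat crude lysate for 10 min at room temperature and then 3 min at 37 °C, in three independent experiments. The lysate was solubilised with 0.8% NP40 and benzonase, ultracentrifuged, and the supernatant TMT-labelled for LC-MS/MS. Each value is the fold change against the detergent-processed vehicle in its own replicate, from vsn-normalised intensities.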

Row | Target | NP40-soluble protein abundance (concentration: 1mM) | NP40-soluble protein abundance (concentration: 2mM) | NP40-soluble protein abundance (concentration: 4mM) | NP40-soluble protein abundance (concentration: 6mM) | NP40-soluble protein abundance (concentration: 8mM) | NP40-soluble protein abundance (concentration: 10mM)
1 | F6X3N5 and related entries (UniProt P62873) | 1 ± 0.03 | 0.959 ± 0.05 | 0.95 ± 0.014 | 0.958 ± 0.049 | 0.9465 ± 0.0079 | 0.955 ± 0.015
2 | E7EQ34 and related entries (UniProt O14653+I3L4Z6+E7EQ34) | 1 ± 0.1 | 1 ± 0.092 | 1.03 ± 0.038 | 1.05 ± 0.086 | 1.02 ± 0.066 | 0.971 ± 0.051
3 | G3V1C3 and related entries (UniProt Q9BZZ5) | 0.856 ± 0.032 | 0.9098 ± 0.0082 | 0.885 ± 0.024 | 0.954 ± 0.021 | 0.914 ± 0.023 | 0.959 ± 0.025
4 | F8WF69 and related entries (UniProt P09496) | 1 ± 0.063 | 1.05 ± 0.09 | 1.07 ± 0.029 | 1.19 ± 0.15 | 1.03 ± 0.021 | 1.02 ± 0.096
5 | E7ETR1 and related entries (UniProt Q8NCB2) | 0.975 ± 0.089 | 1.1 ± 0.1 | 1.17 ± 0.034 | 1.21 ± 0.089 | 1.03 ± 0.034 | 1.08 ± 0.024
6 | F5H658 and related entries (UniProt Q14562) | 1.32 ± 0.046 | 1.3 ± 0.059 | 1.41 ± 0.023 | 1.47 ± 0.042 | 1.57 ± 0.055 | 1.61 ± 0.1
7 | E9PGN6 and related entries (UniProt Q9UI43+E9PGN6) | 0.986 ± 0.011 | 1.09 ± 0.12 | 1.13 ± 0.11 | 1.2 ± 0.12 | 1.07 ± 0.025 | 1.08 ± 0.02
8 | E5RJF8 and related entries (UniProt O15182) | 0.91 ± 0.065 | 0.923 ± 0.025 | 0.873 ± 0.057 | 0.991 ± 0.035 | 0.929 ± 0.029 | 0.945 ± 0.065
9 | D6RIE5 and related entries (UniProt Q9ULK6) | 0.906 ± 0.1 | 0.941 ± 0.075 | 0.973 ± 0.19 | 0.932 ± 0.12 | 0.892 ± 0.069 | 0.841 ± 0.081
10 | E9PMH5 and related entries (UniProt Q13490) | 1.02 ± 0.13 | 1.12 ± 0.059 | 1.11 ± 0.1 | 1.09 ± 0.11 | 1.08 ± 0.16 | 1.13 ± 0.13
11 | E9PFK9 and related entries (UniProt Q9UJ41) | 0.981 ± 0.011 | 0.991 ± 0.014 | 0.988 ± 0.029 | 0.967 ± 0.049 | 0.9617 ± 0.0065 | 0.998 ± 0.038
12 | E5RHG8 and related entries (UniProt Q15369) | 1.02 ± 0.062 | 0.99 ± 0.011 | 0.94 ± 0.031 | 1.03 ± 0.036 | 0.948 ± 0.02 | 0.899 ± 0.034
13 | F6Y5H0 and related entries (UniProt P29558) | 0.95 ± 0.081 | 0.93 ± 0.022 | 0.89 ± 0.021 | 0.947 ± 0.085 | 0.915 ± 0.032 | 0.905 ± 0.025
14 | E9PGT6 and related entries (UniProt Q99627) | 1.03 ± 0.022 | 1.01 ± 0.054 | 1.02 ± 0.026 | 1 ± 0.017 | 1.01 ± 0.014 | 0.944 ± 0.038
15 | E9PL57 and related entries (UniProt Q15843) | 0.89 ± 0.16 | 0.868 ± 0.075 | 0.806 ± 0.11 | 0.914 ± 0.098 | 0.827 ± 0.078 | 0.763 ± 0.082
16 | E7ET39 and related entries (UniProt Q8NDZ4) | 1.08 ± 0.03 | 1.05 ± 0.034 | 1.11 ± 0.12 | 1.15 ± 0.029 | 1.22 ± 0.054 | 1.22 ± 0.12

Shown tab-delimited: part of the list above.
Row	Target	NP40-soluble protein abundance (concentration: 1mM)	NP40-soluble protein abundance (concentration: 2mM)	NP40-soluble protein abundance (concentration: 4mM)	NP40-soluble protein abundance (concentration: 6mM)	NP40-soluble protein abundance (concentration: 8mM)	NP40-soluble protein abundance (concentration: 10mM)
4	F8WF69 and related entries (UniProt P09496)	1 ± 0.063	1.05 ± 0.09	1.07 ± 0.029	1.19 ± 0.15	1.03 ± 0.021	1.02 ± 0.096
7	E9PGN6 and related entries (UniProt Q9UI43+E9PGN6)	0.986 ± 0.011	1.09 ± 0.12	1.13 ± 0.11	1.2 ± 0.12	1.07 ± 0.025	1.08 ± 0.02
